Some of the results follow.
Columns and labels:
Experiment in all cases: log2 fold change, soluble protein after heating vs DMSO (PISA); higher = thermal stabilisation; K562 lysate, 10 uM; active = over 0.2 and 3.5 SD of the protein, either way, in both replicates (recomputed)
ibrutinib = compound: C=CC(=O)N1CCC[C@@H](n2nc(-c3ccc(Oc4ccccc4)cc3)c3c(N)ncnc32)C1 [ibrutinib]
Procedure, shortened: (§1)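 Values give the log-two fold change in thermal stability against solvent controls, from duplicates. Crude K562 extract at 1 mg/mL protein, made by dounce homogenisation in PBS pH 7.4 with 1 mM MgCl2, was treated with 10 μM compound for 30 min. After 3 min heating across 48°C-58°C, aliquots were pooled, adjusted to 0.5% NP-40 at 4°C and centrifuged at 21,000xg for 90 min. The supernatant was measured by TMTpro 16plex LC-MS/MS with channel sums equalised.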

The chains behind the UniProt entries cited, without tags or fusion partners. Where a name states a change or a piece, a line headed by the entry shows the natural chain unless it says otherwise.
UniProt O00178: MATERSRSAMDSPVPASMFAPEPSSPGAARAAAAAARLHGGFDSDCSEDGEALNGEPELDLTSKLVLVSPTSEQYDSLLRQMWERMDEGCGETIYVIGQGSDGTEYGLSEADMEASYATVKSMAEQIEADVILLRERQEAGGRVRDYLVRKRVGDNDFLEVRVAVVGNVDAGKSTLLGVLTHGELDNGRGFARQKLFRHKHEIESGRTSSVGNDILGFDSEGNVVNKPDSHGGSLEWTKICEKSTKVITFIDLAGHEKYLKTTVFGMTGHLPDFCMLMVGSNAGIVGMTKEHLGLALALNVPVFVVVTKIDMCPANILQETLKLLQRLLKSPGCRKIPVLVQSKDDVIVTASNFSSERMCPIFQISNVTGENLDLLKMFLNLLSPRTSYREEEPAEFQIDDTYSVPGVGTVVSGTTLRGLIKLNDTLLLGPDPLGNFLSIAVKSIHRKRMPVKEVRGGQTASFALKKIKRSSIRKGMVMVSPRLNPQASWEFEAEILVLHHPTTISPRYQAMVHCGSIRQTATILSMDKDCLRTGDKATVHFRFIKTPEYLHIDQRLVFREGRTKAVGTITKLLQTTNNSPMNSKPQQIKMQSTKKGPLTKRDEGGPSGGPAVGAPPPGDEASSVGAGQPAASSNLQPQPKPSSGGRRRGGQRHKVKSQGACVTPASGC
UniProt Q8IYU2: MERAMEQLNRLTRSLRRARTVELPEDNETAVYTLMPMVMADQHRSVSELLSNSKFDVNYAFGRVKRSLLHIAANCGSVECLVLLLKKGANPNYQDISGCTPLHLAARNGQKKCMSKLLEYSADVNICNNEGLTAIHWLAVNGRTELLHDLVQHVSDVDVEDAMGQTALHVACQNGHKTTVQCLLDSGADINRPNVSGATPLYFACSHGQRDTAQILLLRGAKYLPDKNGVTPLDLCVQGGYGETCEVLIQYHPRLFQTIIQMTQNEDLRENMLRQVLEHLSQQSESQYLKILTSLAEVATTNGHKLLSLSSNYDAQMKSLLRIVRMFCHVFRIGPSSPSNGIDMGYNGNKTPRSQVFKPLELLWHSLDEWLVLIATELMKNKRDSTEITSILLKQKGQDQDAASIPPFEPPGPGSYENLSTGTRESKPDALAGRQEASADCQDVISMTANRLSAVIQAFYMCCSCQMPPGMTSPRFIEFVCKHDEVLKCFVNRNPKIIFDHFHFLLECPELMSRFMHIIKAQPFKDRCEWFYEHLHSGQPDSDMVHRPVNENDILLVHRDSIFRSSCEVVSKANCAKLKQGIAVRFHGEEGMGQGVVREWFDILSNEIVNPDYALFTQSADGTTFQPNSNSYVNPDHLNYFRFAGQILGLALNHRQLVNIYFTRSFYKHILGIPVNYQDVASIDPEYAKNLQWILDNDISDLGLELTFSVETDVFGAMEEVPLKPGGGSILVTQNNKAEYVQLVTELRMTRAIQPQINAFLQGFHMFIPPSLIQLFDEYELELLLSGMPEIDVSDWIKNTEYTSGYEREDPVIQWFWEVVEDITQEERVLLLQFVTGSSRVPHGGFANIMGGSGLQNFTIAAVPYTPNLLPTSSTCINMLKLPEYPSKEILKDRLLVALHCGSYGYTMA
UniProt Q4V328: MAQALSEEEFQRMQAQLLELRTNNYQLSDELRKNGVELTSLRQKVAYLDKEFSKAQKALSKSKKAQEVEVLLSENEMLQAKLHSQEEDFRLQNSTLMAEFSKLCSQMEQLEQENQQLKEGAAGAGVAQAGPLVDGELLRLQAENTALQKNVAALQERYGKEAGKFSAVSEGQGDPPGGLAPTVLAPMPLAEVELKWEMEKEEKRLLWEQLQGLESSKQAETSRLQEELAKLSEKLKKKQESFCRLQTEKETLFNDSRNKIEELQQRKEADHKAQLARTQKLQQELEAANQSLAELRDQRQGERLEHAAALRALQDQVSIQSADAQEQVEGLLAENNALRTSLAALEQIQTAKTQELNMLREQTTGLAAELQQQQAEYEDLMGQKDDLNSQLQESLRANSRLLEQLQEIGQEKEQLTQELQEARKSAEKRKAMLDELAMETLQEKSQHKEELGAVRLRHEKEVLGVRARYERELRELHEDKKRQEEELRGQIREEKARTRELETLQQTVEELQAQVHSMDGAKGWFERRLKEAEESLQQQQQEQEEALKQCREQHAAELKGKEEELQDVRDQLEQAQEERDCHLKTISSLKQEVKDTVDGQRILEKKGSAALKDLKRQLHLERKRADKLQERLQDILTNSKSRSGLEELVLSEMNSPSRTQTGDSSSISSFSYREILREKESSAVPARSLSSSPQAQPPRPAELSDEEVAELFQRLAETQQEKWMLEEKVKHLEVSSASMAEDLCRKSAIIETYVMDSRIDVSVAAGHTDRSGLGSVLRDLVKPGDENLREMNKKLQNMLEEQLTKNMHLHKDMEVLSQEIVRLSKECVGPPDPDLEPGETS
UniProt P52657, whole entry, looked up: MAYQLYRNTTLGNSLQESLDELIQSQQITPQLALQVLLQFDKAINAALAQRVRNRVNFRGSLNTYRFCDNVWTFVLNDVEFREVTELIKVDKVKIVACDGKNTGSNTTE
UniProt Q9UBN7: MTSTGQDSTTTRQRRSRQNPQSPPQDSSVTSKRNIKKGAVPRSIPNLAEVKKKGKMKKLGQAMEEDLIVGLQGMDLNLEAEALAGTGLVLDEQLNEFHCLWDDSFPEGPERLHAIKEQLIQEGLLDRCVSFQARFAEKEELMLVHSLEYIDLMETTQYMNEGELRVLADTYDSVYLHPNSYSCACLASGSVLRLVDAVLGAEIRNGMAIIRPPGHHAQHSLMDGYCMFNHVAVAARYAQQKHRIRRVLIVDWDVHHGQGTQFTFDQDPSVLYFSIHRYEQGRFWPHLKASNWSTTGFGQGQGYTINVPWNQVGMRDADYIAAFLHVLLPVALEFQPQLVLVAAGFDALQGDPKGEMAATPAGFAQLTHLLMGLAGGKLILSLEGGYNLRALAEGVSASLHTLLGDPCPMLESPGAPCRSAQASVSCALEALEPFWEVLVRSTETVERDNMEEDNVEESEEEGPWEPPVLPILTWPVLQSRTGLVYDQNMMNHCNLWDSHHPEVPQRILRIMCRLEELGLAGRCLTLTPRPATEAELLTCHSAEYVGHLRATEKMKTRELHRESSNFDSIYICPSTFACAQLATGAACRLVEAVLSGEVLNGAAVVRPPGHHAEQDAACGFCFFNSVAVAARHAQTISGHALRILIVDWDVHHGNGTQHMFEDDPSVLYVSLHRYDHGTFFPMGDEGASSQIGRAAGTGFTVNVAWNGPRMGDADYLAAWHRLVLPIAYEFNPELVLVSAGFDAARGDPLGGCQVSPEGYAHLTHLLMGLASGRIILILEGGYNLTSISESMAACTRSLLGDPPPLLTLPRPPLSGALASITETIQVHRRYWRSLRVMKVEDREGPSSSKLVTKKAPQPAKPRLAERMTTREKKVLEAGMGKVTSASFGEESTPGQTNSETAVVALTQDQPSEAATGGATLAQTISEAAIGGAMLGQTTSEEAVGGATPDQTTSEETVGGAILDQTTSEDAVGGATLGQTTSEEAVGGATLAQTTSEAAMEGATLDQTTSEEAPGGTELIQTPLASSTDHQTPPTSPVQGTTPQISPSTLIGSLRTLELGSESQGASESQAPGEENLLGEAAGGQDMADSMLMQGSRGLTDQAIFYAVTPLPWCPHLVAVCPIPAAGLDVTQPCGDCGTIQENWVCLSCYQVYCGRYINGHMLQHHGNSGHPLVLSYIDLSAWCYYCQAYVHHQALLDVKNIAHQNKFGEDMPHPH
UniProt Q12849: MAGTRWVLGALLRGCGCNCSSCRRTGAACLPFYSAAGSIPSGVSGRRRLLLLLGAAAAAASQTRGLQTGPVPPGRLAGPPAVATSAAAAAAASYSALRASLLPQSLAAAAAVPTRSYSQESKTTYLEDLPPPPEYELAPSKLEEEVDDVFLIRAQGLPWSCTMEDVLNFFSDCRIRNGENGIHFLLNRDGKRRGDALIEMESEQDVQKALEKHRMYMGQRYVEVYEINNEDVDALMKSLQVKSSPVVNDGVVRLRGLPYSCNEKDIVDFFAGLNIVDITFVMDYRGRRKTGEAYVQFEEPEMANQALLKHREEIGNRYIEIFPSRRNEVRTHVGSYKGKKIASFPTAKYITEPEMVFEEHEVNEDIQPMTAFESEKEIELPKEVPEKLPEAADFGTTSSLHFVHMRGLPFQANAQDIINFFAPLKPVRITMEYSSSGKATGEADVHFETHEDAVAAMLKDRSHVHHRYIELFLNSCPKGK
UniProt P13984, whole entry, looked up: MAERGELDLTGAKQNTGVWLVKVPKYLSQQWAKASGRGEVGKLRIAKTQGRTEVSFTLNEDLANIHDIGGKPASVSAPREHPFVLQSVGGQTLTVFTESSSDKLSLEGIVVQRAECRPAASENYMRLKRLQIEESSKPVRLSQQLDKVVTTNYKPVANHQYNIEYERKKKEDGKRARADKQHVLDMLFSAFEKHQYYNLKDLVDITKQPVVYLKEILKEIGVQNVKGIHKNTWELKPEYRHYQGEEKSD
UniProt Q9Y3E1: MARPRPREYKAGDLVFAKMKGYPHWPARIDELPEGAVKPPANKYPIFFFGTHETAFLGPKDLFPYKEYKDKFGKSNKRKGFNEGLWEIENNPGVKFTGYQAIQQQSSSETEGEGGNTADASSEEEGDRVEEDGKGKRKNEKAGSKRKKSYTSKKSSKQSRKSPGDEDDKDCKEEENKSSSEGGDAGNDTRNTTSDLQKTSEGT
UniProt O00165, whole entry, looked up: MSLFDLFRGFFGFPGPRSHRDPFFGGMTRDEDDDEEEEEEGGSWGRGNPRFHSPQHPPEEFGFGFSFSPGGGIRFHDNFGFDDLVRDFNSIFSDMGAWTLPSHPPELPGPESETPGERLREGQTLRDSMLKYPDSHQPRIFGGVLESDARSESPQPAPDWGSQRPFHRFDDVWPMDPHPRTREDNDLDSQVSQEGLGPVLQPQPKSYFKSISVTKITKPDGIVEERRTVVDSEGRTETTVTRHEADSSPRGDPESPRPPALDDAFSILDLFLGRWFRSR
UniProt Q9BX10: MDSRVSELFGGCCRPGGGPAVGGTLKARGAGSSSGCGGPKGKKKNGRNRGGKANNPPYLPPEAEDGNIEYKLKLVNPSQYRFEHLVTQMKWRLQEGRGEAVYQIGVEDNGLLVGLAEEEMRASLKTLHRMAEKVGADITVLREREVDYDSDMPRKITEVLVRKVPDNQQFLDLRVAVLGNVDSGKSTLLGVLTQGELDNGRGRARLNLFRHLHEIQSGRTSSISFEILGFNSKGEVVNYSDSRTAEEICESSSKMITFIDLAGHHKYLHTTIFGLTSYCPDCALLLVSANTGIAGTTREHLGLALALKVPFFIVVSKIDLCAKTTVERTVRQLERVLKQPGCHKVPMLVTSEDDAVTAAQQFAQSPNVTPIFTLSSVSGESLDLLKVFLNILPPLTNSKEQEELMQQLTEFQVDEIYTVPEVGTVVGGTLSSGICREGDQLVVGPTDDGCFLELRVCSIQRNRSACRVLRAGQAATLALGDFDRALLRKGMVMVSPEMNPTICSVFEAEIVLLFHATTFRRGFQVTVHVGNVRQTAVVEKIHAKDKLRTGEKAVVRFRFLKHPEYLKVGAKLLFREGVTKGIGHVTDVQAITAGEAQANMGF
UniProt Q9BY41: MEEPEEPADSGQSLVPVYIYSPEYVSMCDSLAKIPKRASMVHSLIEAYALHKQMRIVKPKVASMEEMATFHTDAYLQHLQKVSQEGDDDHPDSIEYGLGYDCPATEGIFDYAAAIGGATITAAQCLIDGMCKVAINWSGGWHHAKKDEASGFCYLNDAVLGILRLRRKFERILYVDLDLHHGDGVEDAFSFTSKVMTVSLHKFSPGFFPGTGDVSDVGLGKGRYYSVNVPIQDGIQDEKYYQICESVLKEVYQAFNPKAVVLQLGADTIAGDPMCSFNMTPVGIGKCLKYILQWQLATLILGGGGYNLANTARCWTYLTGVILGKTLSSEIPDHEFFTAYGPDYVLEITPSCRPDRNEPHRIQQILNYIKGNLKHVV
UniProt Q92769, whole entry, looked up: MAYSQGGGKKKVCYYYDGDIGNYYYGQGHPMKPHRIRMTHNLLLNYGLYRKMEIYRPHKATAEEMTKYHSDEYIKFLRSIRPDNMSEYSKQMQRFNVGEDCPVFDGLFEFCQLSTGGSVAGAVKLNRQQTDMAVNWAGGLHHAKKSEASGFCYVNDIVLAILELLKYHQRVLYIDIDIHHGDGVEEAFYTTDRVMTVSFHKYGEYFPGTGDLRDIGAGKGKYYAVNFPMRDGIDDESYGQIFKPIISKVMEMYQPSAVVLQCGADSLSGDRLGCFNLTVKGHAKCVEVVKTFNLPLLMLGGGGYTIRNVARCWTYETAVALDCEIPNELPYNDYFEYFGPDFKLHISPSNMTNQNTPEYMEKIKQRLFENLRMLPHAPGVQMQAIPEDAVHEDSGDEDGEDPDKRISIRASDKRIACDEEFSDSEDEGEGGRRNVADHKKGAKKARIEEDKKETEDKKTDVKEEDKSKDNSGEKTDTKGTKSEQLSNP

[1] = compound: CC(=O)c1cnc2ccc(-c3cc(Cl)c(O)c(Cl)c3)nc2c1N[C@H]1CC[C@H](CN(C)C)CC1
Procedure, shortened: as §1

ralimetinib = compound: CC(C)(C)Cn1c(N)nc2ccc(-c3[nH]c(C(C)(C)C)nc3-c3ccc(F)cc3)nc21 [ralimetinib]
Procedure, shortened: as §1

[2] = compound: CC(C)(O)CC(=O)NCCn1ccc2ncnc(Nc3ccc(Oc4cccc(C(F)(F)F)c4)c(Cl)c3)c21
Procedure, shortened: as §1

[3] = compound: CC(C)C1=C2N=C(C=C(N2N=C1)NCC3=CC=CC=C3)NCCCCCCN
Procedure, shortened: as §1

[4] = compound: CC1=C(C(CC(=O)N1)C2=CC=C(C=C2)C(F)(F)F)C(=O)NC3=C(C=C4C(=C3)C=NN4)F
Procedure, shortened: as §1

[5] = compound: CC1=C(C2=C(C=C1)C(=O)C3=CC=CC=C3N2CCCN)C
Procedure, shortened: as §1

[6] = compound: CC1=C(C=C(C=C1)NC(=O)C2=CC(=CC=C2)C(C)(C)C#N)NC3=CC4=C(C=C3)N=CN(C4=O)C
Procedure, shortened: as §1

[7] = compound: CC1=C(C=C(C=C1)NC(=O)C2=CC(=CC=C2)N(C)C)NC(=O)C3=CC=C(C=C3)O
Procedure, shortened: as §1

[8] = compound: CC1=CC=C(C=C1)SC2=C3C=C(SC3=CN=C2)C(=O)N
Procedure, shortened: as §1

vemurafenib = compound: CCCS(=O)(=O)Nc1ccc(F)c(C(=O)c2c[nH]c3ncc(-c4ccc(Cl)cc4)cc23)c1F [vemurafenib]
Procedure, shortened: as §1

[9] = compound: CCCS(=O)(=O)Nc1ccc(F)c(C(=O)c2c[nH]c3ncc(Cl)cc23)c1F
Procedure, shortened: as §1

barasertib = compound: CCN(CCCOc1ccc2c(Nc3cc(CC(=O)Nc4cccc(F)c4)[nH]n3)ncnc2c1)CCOP(=O)(O)O [barasertib]
Procedure, shortened: as §1

[10] = compound: CC[C@@H]1C(=O)N(C)c2cnc(Nc3ccc(C(=O)NC4CCN(C)CC4)cc3OC)nc2N1C1CCCC1
Procedure, shortened: as §1

volasertib = compound: CC[C@@H]1C(=O)N(C)c2cnc(Nc3ccc(C(=O)N[C@H]4CC[C@H](N5CCN(CC6CC6)CC5)CC4)cc3OC)nc2N1C(C)C [volasertib]
Procedure, shortened: as §1

[11] = compound: CCn1c(C(=O)N(C2CC2)C2CC2)cc2c3c(ncn3C)c(Nc3cc(C)n(C)n3)nc21
Procedure, shortened: as §1

[12] = compound: CCn1cc(-c2ccnc3[nH]c(-c4cccc(CN(C)C)c4)cc23)c(-c2ccc(NC(=O)N(C)C)cc2)n1
Procedure, shortened: as §1

[13] = compound: CN1CCC(CNc2ccc3ncc(-c4cccc(OC(F)(F)F)c4)n3n2)CC1
Procedure, shortened: as §1

saracatinib = compound: CN1CCN(CCOc2cc(OC3CCOCC3)c3c(Nc4c(Cl)ccc5c4OCO5)ncnc3c2)CC1 [saracatinib]
Procedure, shortened: as §1

sotrastaurin = compound: CN1CCN(c2nc(C3=C(c4c[nH]c5ccccc45)C(=O)NC3=O)c3ccccc3n2)CC1 [sotrastaurin]
Procedure, shortened: as §1

Measured: log2 fold change

HADHA (UniProt P40939)
inactive: ibrutinib 0.078 | [1] -0.057 | ralimetinib 0.012 | [2] 0.05 | [3] -0.042 | [4] -0.031 | [5] -0.01 | [6] 0.055 | [7] -0.033 | [8] 0.077 | vemurafenib 0.019 | [9] -0.002 | barasertib -0.103 | [10] -0.024 | volasertib 0.09 | [11] -0.036 | [12] 0.012 | [13] 0.071 | saracatinib -0.04 | sotrastaurin -0.025

GTPBP1 (UniProt O00178)
inactive: ibrutinib -0.004 | [1] -0.002 | ralimetinib 0.025 | [2] -0.002 | [3] 0.009 | [4] 0.002 | [5] -0.039 | [6] 0.028 | [7] 0.001 | [8] 0.007 | vemurafenib 0.038 | [9] 0.034 | barasertib -0.027 | [10] 0.012 | volasertib -0.008 | [11] 0.022 | [12] -0.138 | [13] 0.033 | saracatinib 0.023 | sotrastaurin 0.001

HDAC10 (UniProt Q969S8)
inactive: ibrutinib -0.038 | [1] 0.019 | ralimetinib -0.106 | [2] 0.144 | [3] -0.207 | [4] -0.11 | [5] -0.088 | [6] 0.037 | [7] 0.022 | [8] 0.017 | vemurafenib 0.142 | [9] -0.093 | barasertib 0.009 | [10] -0.052 | volasertib -0.056 | [11] -0.117 | [12] -0.026 | [13] 0.02 | saracatinib -0.052 | sotrastaurin -0.069

HACE1 (UniProt Q8IYU2)
active: [12] -0.657
inactive: ibrutinib -0.034 | [1] -0.062 | ralimetinib 0 | [2] -0.056 | [3] 0.041 | [4] -0.042 | [5] -0.042 | [6] -0.07 | [7] 0.08 | [8] 0.01 | vemurafenib 0.066 | [9] 0.07 | barasertib 0.081 | [10] 0.069 | volasertib -0.058 | [11] 0.039 | [13] 0.252 | saracatinib 0.025 | sotrastaurin -0.154

GRIPAP1 (UniProt Q4V328)
inactive: ibrutinib -0.001 | [1] 0.003 | ralimetinib 0.017 | [2] 0.003 | [3] -0.007 | [4] 0.011 | [5] -0.024 | [6] -0.013 | [7] -0.013 | [8] -0.014 | vemurafenib 0.003 | [9] 0.009 | barasertib -0.003 | [10] 0.032 | volasertib -0.007 | [11] -0.013 | [12] 0.097 | [13] -0.053 | saracatinib 0.03 | sotrastaurin 0.014

GTF2A2 (UniProt P52657)
inactive: ibrutinib 0.041 | [1] 0.043 | ralimetinib 0.026 | [2] -0.032 | [3] -0.021 | [4] 0.008 | [5] 0 | [6] -0.004 | [7] -0.021 | [8] 0.015 | vemurafenib 0.011 | [9] 0 | barasertib -0.005 | [10] 0.003 | volasertib -0.013 | [11] 0.011 | [12] -0.011 | [13] 0.058 | saracatinib 0.03 | sotrastaurin -0.052

HDAC6 (UniProt Q9UBN7)
inactive: ibrutinib -0.051 | [1] 0.003 | ralimetinib -0.024 | [2] -0.041 | [3] -0.014 | [4] -0.036 | [5] -0.002 | [6] 0.008 | [7] -0.01 | [8] 0.01 | vemurafenib -0.02 | [9] 0.01 | barasertib -0.017 | [10] -0.035 | volasertib -0.047 | [11] -0.023 | [12] 0.073 | [13] -0.011 | saracatinib -0.011 | sotrastaurin 0.008

GRSF1 (UniProt Q12849)
inactive: ibrutinib -0.007 | [1] -0.029 | ralimetinib 0.014 | [2] -0.043 | [3] -0.025 | [4] -0.02 | [5] -0.025 | [6] 0.016 | [7] 0.004 | [8] -0.005 | vemurafenib 0.056 | [9] 0.028 | barasertib 0.01 | [10] 0 | volasertib -0.032 | [11] -0.025 | [12] -0.076 | [13] 0.031 | saracatinib -0.015 | sotrastaurin -0.003

GTF2F2 (UniProt P13984)
inactive: ibrutinib -0.007 | [1] -0.013 | ralimetinib -0.01 | [2] 0 | [3] 0.015 | [4] -0.042 | [5] -0.019 | [6] -0.013 | [7] -0.004 | [8] 0.002 | vemurafenib -0.029 | [9] -0.005 | barasertib -0.009 | [10] 0.041 | volasertib 0.009 | [11] -0.012 | [12] -0.083 | [13] 0.02 | saracatinib -0.003 | sotrastaurin 0.012

HDGFL3 (UniProt Q9Y3E1)
inactive: ibrutinib -0.006 | [1] -0.036 | ralimetinib -0.043 | [2] -0.064 | [3] 0.03 | [4] -0.052 | [5] -0.015 | [6] 0.022 | [7] 0.04 | [8] -0.014 | vemurafenib 0.108 | [9] -0.078 | barasertib 0.026 | [10] 0.107 | volasertib 0.008 | [11] -0.042 | [12] -0.101 | [13] 0.031 | saracatinib -0.023 | sotrastaurin 0.032

HAX1 (UniProt O00165)
inactive: ibrutinib 0.048 | [1] 0.042 | ralimetinib 0 | [2] -0.016 | [3] 0.056 | [4] 0.002 | [5] -0.054 | [6] -0.011 | [7] 0.017 | [8] 0.015 | vemurafenib -0.051 | [9] 0.037 | barasertib 0.067 | [10] -0.018 | volasertib 0.022 | [11] 0.032 | [12] 0.03 | [13] -0.053 | saracatinib 0.013 | sotrastaurin 0.029

HDAC7 isoform 5 (UniProt Q8WUI4)
inactive: ibrutinib 0.021 | [1] -0.009 | ralimetinib 0.003 | [2] -0.032 | [3] 0.02 | [4] 0.042 | [5] 0.034 | [6] -0.005 | [7] -0.022 | [8] 0.015 | vemurafenib -0.02 | [9] 0.023 | barasertib -0.032 | [10] -0.043 | volasertib 0.003 | [11] 0.006 | [12] 0.01 | [13] -0.013 | saracatinib 0.021 | sotrastaurin -0.016

GRK2 (UniProt P25098)
inactive: ibrutinib 0.002 | [1] 0.011 | ralimetinib 0.006 | [2] 0.036 | [3] 0 | [4] 0.151 | [5] 0.014 | [6] -0.048 | [7] 0.007 | [8] -0.031 | vemurafenib -0.019 | [9] 0.016 | barasertib -0.006 | [10] -0.08 | volasertib -0.05 | [11] 0.003 | [12] -0.054 | [13] -0.016 | saracatinib -0.009 | sotrastaurin 0.01

GTPBP2 (UniProt Q9BX10)
inactive: ibrutinib 0.008 | [1] -0.123 | ralimetinib 0.042 | [2] -0.035 | [3] 0 | [4] 0.004 | [5] -0.018 | [6] 0 | [7] 0.047 | [8] -0.032 | vemurafenib 0.005 | [9] 0.005 | barasertib 0.034 | [10] -0.03 | volasertib -0.104 | [11] 0.043 | [12] 0.124 | [13] -0.074 | saracatinib 0.047 | sotrastaurin 0.043

HDAC8 (UniProt Q9BY41)
inactive: ibrutinib -0.102 | [1] 0.049 | ralimetinib -0.018 | [2] 0.041 | [3] 0.045 | [4] -0.111 | [5] 0.08 | [6] -0.012 | [7] -0.013 | [8] 0 | vemurafenib 0.051 | [9] 0.06 | barasertib -0.135 | [10] -0.034 | volasertib -0.084 | [11] -0.018 | [12] -0.057 | [13] 0.169 | saracatinib 0.04 | sotrastaurin -0.029

HDAC2 (UniProt Q92769)
inactive: ibrutinib 0 | [1] -0.008 | ralimetinib -0.005 | [2] -0.029 | [3] -0.001 | [4] -0.013 | [5] -0.01 | [6] -0.025 | [7] -0.016 | [8] -0.013 | vemurafenib -0.025 | [9] 0.035 | barasertib 0.009 | [10] -0.012 | volasertib -0.009 | [11] 0.002 | [12] -0.052 | [13] 0.055 | saracatinib 0.02 | sotrastaurin -0.024

— the supplement of paper PMC10849652
